Results deposited as PubChem BioAssay AID1259308 (NCATS, 2017).
Here is one part, drawn at random, of about 59,000 reagents tested. Of all reagents, about 1,510 (2.6%) are marked active. 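Calls use total luciferase alone and ignore viability, so some active siRNAs may act by altering cell number.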 Reagents against one gene are numbered here. Reagent sequences are not shown.

Screen: 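Knock-downs that increase output of a recombinant reporter protein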 (primary screen)
Cells: human HEK293 embryonic kidney cells stably expressing firefly luciferase (HEK-CMV-Luc2-Hygro)
Knock-down reagent: single siRNA against human genes, 0.8 pmol siRNA per well
Duration: 72 h
Read-out: 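Reporter luminescence and viable-cell signal on separate replicate plates, given as percent of non-targeting control and median/MAD z-scores, plus per-cell luciferase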
Reading the numbers: total luciferase, z-score and total luciferase, % of control: higher = more reporter protein produced; luciferase per cell, z-score: higher = more reporter output per viable cell; viable cells, % of control: higher = more viable cells
Call rule: 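An siRNA counts as active if its total luciferase robust z-score exceeds 3; genes with two or more such siRNAs out of three were retested with fresh siRNAs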
Meaning of the calls: active = raised luciferase; inactive = no rise

target gene,reagent,"total luciferase, z-score","total luciferase, % of control","luciferase per cell, z-score","viable cells, % of control",Call
NRAP (GeneID 4892),1,1.39,110,2.63,61.3,inactive
NRAP (GeneID 4892),2,1.12,104,0.734,96,inactive
NRAP (GeneID 4892),3,1.37,109,0.653,103,inactive
POTEA (GeneID 340441),1,-1.93,43.5,-1.82,78.6,inactive
POTEA (GeneID 340441),2,1.06,103,1,88.4,inactive
POTEA (GeneID 340441),3,-0.242,77.1,-0.207,90.9,inactive
EIF2S3 (GeneID 1968),1,-3.01,22,-3.76,66,inactive
EIF2S3 (GeneID 1968),2,-2.68,28.7,-2.86,68,inactive
EIF2S3 (GeneID 1968),3,-0.953,62.9,-0.477,79.7,inactive
STX19 (GeneID 415117),1,0.0586,83.1,-0.0185,93.3,inactive
STX19 (GeneID 415117),2,0.567,93.2,1.11,77.8,inactive
STX19 (GeneID 415117),3,-0.0649,80.6,0.245,84.4,inactive
LIM2 (GeneID 3982),1,0.221,86.3,-0.211,102,inactive
LIM2 (GeneID 3982),2,0.117,84.2,0.141,90.7,inactive
LIM2 (GeneID 3982),3,1.48,111,2.11,71.4,inactive
GABARAP (GeneID 11337),1,-0.361,74.7,-0.32,90.8,inactive
GABARAP (GeneID 11337),2,-0.0574,80.7,0.679,75.5,inactive
GABARAP (GeneID 11337),3,-0.273,76.4,-0.427,95.6,inactive
SERPING1 (GeneID 710),1,-2.28,36.5,-2.85,86.3,inactive
SERPING1 (GeneID 710),2,0.0945,83.8,-0.241,99.7,inactive
SERPING1 (GeneID 710),3,2.6,134,1.31,106,inactive
OSM (GeneID 5008),1,-0.44,73.1,-1.51,122,inactive
OSM (GeneID 5008),2,1.24,106,1.79,74.2,inactive
OSM (GeneID 5008),3,3.56,153,2.43,90,active
RRM2 (GeneID 6241),1,0.499,91.8,0.161,98.3,inactive
RRM2 (GeneID 6241),2,-1.95,43.2,1.57,31.9,inactive
RRM2 (GeneID 6241),3,-0.275,76.4,1.49,57.6,inactive
RRM2 (GeneID 6241),4,4.53,172,3.68,72.9,active
RRM2 (GeneID 6241),5,0.193,85.7,-0.31,104,inactive
RRM2 (GeneID 6241),6,0.0386,82.7,-0.872,116,inactive
FAF2 (GeneID 23197),1,0.611,94,0.0341,104,inactive
FAF2 (GeneID 23197),2,1.07,103,0.923,90.3,inactive
FAF2 (GeneID 23197),3,0.354,88.9,-0.0923,102,inactive
ZNF121 (GeneID 7675),1,1.48,111,1.96,74.3,inactive
ZNF121 (GeneID 7675),2,-0.0969,80,-0.803,110,inactive
ZNF121 (GeneID 7675),3,0.606,93.9,0.0127,105,inactive
INKA2 (GeneID 55924),1,-1.85,45.1,-1.8,80.9,inactive
INKA2 (GeneID 55924),2,-0.227,77.4,-0.718,104,inactive
INKA2 (GeneID 55924),3,0.0939,83.8,0.673,78.4,inactive
RPS12P4 (GeneID 391370),1,-2.25,37.1,-0.491,47.2,inactive
RPS12P4 (GeneID 391370),2,-2.29,36.3,-1.8,65.1,inactive
RPS12P4 (GeneID 391370),3,0.343,88.7,0.511,86.7,inactive
F2 (GeneID 2147),1,-0.993,62.1,-1.1,92.8,inactive
F2 (GeneID 2147),2,-0.179,78.3,-0.479,99.3,inactive
F2 (GeneID 2147),3,0.68,95.4,0.874,84.7,inactive
SMARCA5 (GeneID 8467),1,0.604,93.9,0.345,95.8,inactive
SMARCA5 (GeneID 8467),2,0.574,93.3,-0.0988,107,inactive
SMARCA5 (GeneID 8467),3,-0.0425,81,-0.119,93.4,inactive
NDUFB8 (GeneID 4714),1,0.55,92.8,0.622,88.1,inactive
NDUFB8 (GeneID 4714),2,-0.29,76.1,-0.0389,85.9,inactive
NDUFB8 (GeneID 4714),3,-1.68,48.6,-1.59,82.6,inactive
GUCY1A1 (GeneID 2982),1,-0.726,67.4,-1.03,98.9,inactive
GUCY1A1 (GeneID 2982),2,0.784,97.5,0.501,95.5,inactive
GUCY1A1 (GeneID 2982),3,-0.232,77.3,-0.121,89.2,inactive
ZFP28 (GeneID 140612),1,-0.945,63.1,-1.38,101,inactive
ZFP28 (GeneID 140612),2,1.28,107,1.29,85.4,inactive
ZFP28 (GeneID 140612),3,1.42,110,0.677,103,inactive

Look-ups from the entries so far.
LIM2 (GeneID 3982) #1, Call → inactive
RPS12P4 (GeneID 391370) #3, Call → inactive
Value of EIF2S3 (GeneID 1968) #3 under “viable cells, % of control”: 79.7
Entry of ZNF121 (GeneID 7675) #1 under “total luciferase, z-score”: 1.48
GABARAP (GeneID 11337) #3, viable cells, % of control → 95.6
Value of ZNF121 (GeneID 7675) #2 in “total luciferase, % of control”: 80
